Test results: article PMC3033373
Results are given in words; binding and its absence hold for the method and conditions named. Binding seen in cells or lysates may run through a third protein.

Sequences of proteins named here, by UniProt entry; tags and fusion partners are left off. A change or cut given only in a name is not applied to a line headed by its entry. A line that says so, or that is headed by a name, gives the form on record, which may keep a tag or linker.
UniProt P09269: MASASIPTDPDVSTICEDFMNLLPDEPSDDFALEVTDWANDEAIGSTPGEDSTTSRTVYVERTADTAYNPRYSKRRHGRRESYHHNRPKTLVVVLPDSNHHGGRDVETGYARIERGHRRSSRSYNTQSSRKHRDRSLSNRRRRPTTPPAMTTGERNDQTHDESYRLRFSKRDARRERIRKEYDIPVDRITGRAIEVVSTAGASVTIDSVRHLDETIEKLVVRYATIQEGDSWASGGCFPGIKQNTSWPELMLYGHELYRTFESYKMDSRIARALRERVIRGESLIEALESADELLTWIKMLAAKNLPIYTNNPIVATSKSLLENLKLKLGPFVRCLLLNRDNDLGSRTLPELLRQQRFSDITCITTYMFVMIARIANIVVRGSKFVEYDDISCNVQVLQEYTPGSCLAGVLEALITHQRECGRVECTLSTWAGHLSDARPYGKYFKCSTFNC
Promyelocytic leukemia protein isoform IV (PML IV) (P29590-5, form named): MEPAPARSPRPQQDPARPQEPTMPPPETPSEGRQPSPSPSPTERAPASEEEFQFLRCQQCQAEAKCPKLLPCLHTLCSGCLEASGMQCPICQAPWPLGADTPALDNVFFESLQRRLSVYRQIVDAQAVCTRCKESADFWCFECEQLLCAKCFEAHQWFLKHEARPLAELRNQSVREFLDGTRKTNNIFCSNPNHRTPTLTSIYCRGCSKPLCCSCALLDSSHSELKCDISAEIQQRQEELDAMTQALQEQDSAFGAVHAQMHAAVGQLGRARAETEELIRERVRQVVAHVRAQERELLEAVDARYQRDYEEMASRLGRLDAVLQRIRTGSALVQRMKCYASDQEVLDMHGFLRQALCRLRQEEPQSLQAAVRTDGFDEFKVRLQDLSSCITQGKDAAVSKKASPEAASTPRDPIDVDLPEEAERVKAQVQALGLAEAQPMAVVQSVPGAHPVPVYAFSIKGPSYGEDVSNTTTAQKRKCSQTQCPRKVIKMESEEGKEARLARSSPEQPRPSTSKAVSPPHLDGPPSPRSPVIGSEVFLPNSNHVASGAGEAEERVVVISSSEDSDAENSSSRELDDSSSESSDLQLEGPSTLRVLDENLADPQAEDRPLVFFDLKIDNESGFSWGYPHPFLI

Target: VZV ORF4 protein tagged with maltose-binding protein (MBP-ORF4) (varicella-zoster virus (VZV)) (UniProt P09269)
Test: co-IP; cells co-transfected with PML IV and MBP-ORF23 or MBP-ORF4; lysed in high salt buffer (450 mM NaCl, 0.5% NP-40), diluted with NaCl-free buffer; anti-MBP antibody on sepharose beads, 4 °C, 4 hr; washed six times in 20 mM HEPES pH 7.2, 90 mM NaCl, 1.5 mM MgCl2, 0.5% NP-40, 20% glycerol; PML IV detected by blot with rabbit polyclonal anti-PML

## Promyelocytic leukemia protein isoform IV (PML IV) (from UniProt P29590-5 1-633)
  binding: no binding
